# Values from PubChem BioAssay AID1224830 (NIAID, 2016)
# Assay: 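Host factors that control LPS-induced TNF expression in human macrophages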 (primary screen)
# System: human THP-1 monocytic leukaemia cells, TNF dual-luciferase reporter clone, PMA-differentiated to macrophage-like cells
# Reagent: siRNA pool against human genes, 50 nM
# Time to read-out: LPS for 4 h, given about 3 days after siRNA transfection
# Conditions: bacterial LPS (TLR4 ligand), 10 ng/ml
# Read-out: 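Ratio of firefly to renilla light, scaled to the plate median and expressed as a robust z-score per replicate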
# Scale: TNF reporter robust z-score: higher = stronger TNF reporter response to LPS
# Active means: 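Each well counts as active if its z-score is over 2.8 or under -1.5; controls are left without a call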
# The deposit covers about 18,000 reagents; below is a random part of them. Over the whole deposit, about 2,900 (16%) were called active. 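Calls are made per well; low scores hint the gene aids the LPS response, high scores that it dampens it.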 A number with no mark means an inactive call. Repeated entries: four replicate wells of each siRNA pool.
gene symbol,TNF reporter robust z-score
RHOXF2,0.39
RHOXF2,-0.29
RHOXF2,-0.77
RHOXF2,-0.56
KPNA4,-0.99
KPNA4,4.69 (active)
KPNA4,2.91 (active)
KPNA4,1.54
HMGB1P1,2.5
HMGB1P1,4.02 (active)
HMGB1P1,0.9
HMGB1P1,4.6 (active)
LAMTOR2,-1.65 (active)
LAMTOR2,1.37
LAMTOR2,-1.94 (active)
LAMTOR2,-1.31
KRTAP4-5,-0.12
KRTAP4-5,-0.05
KRTAP4-5,-0.64
KRTAP4-5,0.16
USP31,-0.27
USP31,-0.22
USP31,-0.14
USP31,0.36
DYNLL2,1.57
DYNLL2,1.03
DYNLL2,0.19
DYNLL2,1.78
SEMG1,-1.46
SEMG1,-0.35
SEMG1,-1.19
SEMG1,-1.12
HMGA2,0.31
HMGA2,1.46
HMGA2,-0.33
HMGA2,0.92
KRT3,-0.48
KRT3,0.56
KRT3,-0.41
KRT3,0.61
CD300LD-AS1,0.3
CD300LD-AS1,-0.85
CD300LD-AS1,-0.26
CD300LD-AS1,0.92
ICOS,0.79
ICOS,0.31
ICOS,0.29
ICOS,0.14

The listing continues:
gene symbol,TNF reporter robust z-score
PRDM12,-0.27
PRDM12,0.5
PRDM12,-1.36
PRDM12,0.09
BABAM2,-0.63
BABAM2,0.17
BABAM2,-0.59
BABAM2,-0.07
STX12,-0.61
STX12,0.06
STX12,-0.81
STX12,-0.04
SKA3,-0.75
SKA3,-0.4
SKA3,-1.5
SKA3,-0.72
ZFP90,-0.84
ZFP90,-0.89
ZFP90,-0.31
ZFP90,-0.39
DPYSL2,-0.82
DPYSL2,-1.12
DPYSL2,-1.58 (active)
DPYSL2,-0.12
RBFA,0.55
RBFA,1.1
RBFA,-0.79
RBFA,0.1
ANO9,-0.61
ANO9,-0.14
ANO9,-0.51
ANO9,-0.03
TSPY1,1.78
TSPY1,2.54
TSPY1,1.34
TSPY1,1.91
PKD1,-0.7
PKD1,0.03
PKD1,-2.06 (active)
PKD1,-0.82
WNT2,0.19
WNT2,-0.11
WNT2,-0.22
WNT2,-0.02
HOXC12,-0.08
HOXC12,0.67
HOXC12,0.97
HOXC12,0.05
RIN3,-0.13
RIN3,-0.02
RIN3,-0.25
RIN3,0.44
TMEM270,-0.57
TMEM270,-0.79
TMEM270,-1.09
TMEM270,-0.68
C11orf52,-0.55
C11orf52,0.51
C11orf52,0.93
C11orf52,1.65
TAF4B,-0.21
TAF4B,0.85
TAF4B,0.16
